Laboratory results: article PMC4627290
These are yes or no findings as the source states them, for the method shown. Binding seen in cells or lysates may run through a third protein. Some entries that bind do so weakly or less than the wild type.

By UniProt entry, the sequences of proteins in these tests, tags left out.
UniProt Q13283: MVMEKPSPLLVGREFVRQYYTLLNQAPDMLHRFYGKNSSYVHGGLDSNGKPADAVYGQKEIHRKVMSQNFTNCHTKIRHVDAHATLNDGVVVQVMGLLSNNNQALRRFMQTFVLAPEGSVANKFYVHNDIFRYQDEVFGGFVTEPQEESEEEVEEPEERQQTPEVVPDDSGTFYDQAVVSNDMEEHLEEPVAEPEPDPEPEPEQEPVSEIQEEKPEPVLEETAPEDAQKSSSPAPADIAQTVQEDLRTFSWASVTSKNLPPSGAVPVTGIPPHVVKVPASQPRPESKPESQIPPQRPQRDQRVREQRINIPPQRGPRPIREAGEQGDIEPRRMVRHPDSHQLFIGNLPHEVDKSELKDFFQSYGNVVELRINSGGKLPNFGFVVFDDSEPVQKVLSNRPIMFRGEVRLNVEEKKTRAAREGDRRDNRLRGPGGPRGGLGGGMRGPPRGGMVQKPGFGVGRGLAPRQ
UniProt Q15796: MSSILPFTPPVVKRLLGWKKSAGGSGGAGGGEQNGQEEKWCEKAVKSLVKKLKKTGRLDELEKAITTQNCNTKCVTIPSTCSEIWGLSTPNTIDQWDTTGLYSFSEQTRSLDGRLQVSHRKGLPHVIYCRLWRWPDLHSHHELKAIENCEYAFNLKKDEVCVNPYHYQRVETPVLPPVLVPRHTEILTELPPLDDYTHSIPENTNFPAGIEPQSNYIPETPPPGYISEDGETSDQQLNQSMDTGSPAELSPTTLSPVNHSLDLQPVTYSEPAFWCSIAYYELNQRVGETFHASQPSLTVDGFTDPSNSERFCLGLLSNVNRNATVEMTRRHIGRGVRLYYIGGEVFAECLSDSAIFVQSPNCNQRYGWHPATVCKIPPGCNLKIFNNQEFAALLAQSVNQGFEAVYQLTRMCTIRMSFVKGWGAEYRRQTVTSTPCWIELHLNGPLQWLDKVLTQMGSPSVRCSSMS
UniProt Q13485: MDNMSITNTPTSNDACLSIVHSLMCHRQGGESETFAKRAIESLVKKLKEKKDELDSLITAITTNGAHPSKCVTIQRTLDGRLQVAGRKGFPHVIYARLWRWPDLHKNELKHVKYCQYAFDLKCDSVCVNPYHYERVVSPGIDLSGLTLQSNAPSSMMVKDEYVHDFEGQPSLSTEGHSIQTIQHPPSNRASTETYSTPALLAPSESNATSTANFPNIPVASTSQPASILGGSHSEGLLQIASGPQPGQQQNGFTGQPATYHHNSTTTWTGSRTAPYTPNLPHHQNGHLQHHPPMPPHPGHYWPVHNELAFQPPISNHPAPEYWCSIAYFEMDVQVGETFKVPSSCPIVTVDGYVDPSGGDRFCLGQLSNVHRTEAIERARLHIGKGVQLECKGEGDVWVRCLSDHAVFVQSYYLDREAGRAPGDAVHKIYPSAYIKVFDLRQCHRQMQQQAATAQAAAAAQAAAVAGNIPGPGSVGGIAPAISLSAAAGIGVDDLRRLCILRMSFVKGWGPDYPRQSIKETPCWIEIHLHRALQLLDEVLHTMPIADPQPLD

Columns and labels:
[1] = target: Ras GTPase-activating protein SH3 domain-binding protein 1 (human (endogenous in MDA-MB-231 and MCF-7)) (UniProt Q13283); experiment: co-IP; endogenous proteins, MDA-MB-231 whole-cell extracts in RIPA buffer, 1 mg total protein, antibodies against G3BP1, Smad2, Smad3 or Smad4 overnight at 4°C, Protein A/G PLUS-Agarose, immunoblot; reciprocal; also cells transfected with Smad3 siRNA (interactions not disrupted)
[2] = target: Ras GTPase-activating protein SH3 domain-binding protein 1 (human (endogenous in MDA-MB-231 and MCF-7)) (UniProt Q13283); experiment: co-IP; endogenous proteins in MCF-7 cells; data not shown

binding [1]	binding [2]	Substance
binds	binds	Smad2 (from UniProt Q15796 1-467)
binds	binds	Smad4 (from UniProt Q13485 1-552)
